Reference: publication doi:10.1101/2021.12.31.471205
No constants are given. Whether binding was seen depends on the method and setting. Binding seen in cells or lysates may run through a third protein. Some binding calls cover weakened binding; strength is not graded here.

Protein sequences, listed by entry. Tags and fused reporters are not part of them. Lines headed by an entry give the natural chain unless they say otherwise; changes in a name come on top. Chains listed by the source or under a name are the forms on record and can include a tag or linker.
UniProt P55771: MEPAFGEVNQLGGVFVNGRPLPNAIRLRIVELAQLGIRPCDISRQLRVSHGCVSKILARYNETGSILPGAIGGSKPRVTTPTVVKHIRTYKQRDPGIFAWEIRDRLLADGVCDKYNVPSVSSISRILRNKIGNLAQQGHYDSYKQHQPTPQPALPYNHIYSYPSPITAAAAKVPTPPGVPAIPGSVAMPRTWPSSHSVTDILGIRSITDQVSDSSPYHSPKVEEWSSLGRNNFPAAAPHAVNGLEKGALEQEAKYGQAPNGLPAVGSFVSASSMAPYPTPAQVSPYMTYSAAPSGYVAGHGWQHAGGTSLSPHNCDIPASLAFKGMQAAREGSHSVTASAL
GST-PAX9 mutant (p.Cys112Trp, c.336C>G) (P55771, form named): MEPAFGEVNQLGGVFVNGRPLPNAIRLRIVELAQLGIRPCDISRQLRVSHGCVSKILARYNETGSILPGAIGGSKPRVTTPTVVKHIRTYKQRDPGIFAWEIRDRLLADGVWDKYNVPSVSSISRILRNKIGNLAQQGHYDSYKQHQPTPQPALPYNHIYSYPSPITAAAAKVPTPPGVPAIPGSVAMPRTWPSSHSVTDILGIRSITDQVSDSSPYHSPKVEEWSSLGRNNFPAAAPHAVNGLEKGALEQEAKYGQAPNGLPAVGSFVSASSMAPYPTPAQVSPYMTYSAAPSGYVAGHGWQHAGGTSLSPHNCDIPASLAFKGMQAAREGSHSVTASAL
UniProt P28360: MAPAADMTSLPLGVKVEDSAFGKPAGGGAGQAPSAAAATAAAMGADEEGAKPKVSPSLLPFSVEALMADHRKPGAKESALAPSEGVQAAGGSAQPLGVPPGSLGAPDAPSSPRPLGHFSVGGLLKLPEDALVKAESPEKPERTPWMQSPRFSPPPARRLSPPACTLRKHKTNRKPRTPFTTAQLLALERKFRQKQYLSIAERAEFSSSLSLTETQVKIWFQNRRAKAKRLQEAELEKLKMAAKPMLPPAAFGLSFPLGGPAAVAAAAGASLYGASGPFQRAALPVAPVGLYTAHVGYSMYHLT

Legend:
[1] = biological target: GST-PAX9 (wild type) (human) (UniProt P55771); experiment: pull-down
[2] = biological target: GST-PAX9 mutant (p.Cys112Trp, c.336C>G) (human) (UniProt P55771); experiment: pull-down

binding [1]: binds
binding [2]: binds weakly
Substance: FLAG-MSX1 (from UniProt P28360 1-303)
